Results: US20240109881A1, “Heteroaryl Compounds as Ligand Directed Degraders of IRAK4” (Bristol-Myers Squibb Company, priority 2022, published 2024)
Structures were worked out from names or drawings and are uncertain.

Amino acid sequences for entries named in this document (tags omitted).
UniProt Q9NWZ3, whole entry: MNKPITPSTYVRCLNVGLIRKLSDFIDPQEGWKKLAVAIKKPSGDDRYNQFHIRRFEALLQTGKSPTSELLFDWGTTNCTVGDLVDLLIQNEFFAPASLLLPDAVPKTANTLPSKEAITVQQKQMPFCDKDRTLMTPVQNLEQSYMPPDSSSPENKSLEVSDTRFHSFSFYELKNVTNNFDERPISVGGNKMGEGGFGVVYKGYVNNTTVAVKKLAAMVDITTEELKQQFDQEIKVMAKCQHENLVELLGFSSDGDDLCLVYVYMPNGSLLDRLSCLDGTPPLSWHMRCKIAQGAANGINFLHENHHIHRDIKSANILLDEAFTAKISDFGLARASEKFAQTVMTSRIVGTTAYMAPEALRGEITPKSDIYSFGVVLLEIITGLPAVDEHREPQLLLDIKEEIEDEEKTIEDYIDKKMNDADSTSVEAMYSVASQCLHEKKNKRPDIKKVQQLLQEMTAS

Molecular target: IRAK4 (Homo sapiens, UniProt Q9NWZ3)
Assay: LVL THP1 HTRF (THP1 Homogeneous Time Resolved Fluorescence)
Conditions: for LVL THP1 HTRF YMIN: THP1 cells, 18 h incubation with compound; for EC50: read-out: LVL THP1 HTRF EC50, THP1 cells, 18 h incubation with compound
Protocol: Cell culture media was prepared in a tissue culture hood in a sterile environment by adding 10% FBS and 1% Penicillin Streptomycin to 500 mL no phenol red RPMI 1640 media. The media was filtered through a Nalgene Bottle Top Filter and stored at 4° C.
For Homogenous Time Resolved Fluorescence (HTRF) assays, a Cisbio HTRF kit was used, which included: Lysis Buffer #1 4×, Blocking Reagent #3 100×, 20× Antibody 1 (Anti-IRAK4 d2), 20× Antibody 2 (Anti-IRAK4 k), and Detection Buffer.
The THP1 plates were prepared by the following method. For each dosing plate, a duplicate for CTG assay was prepared. Two THP-1 T-175 flasks could be used to plate one 384 well plate. The cells were collected from two T-175 flasks into 200 mL centrifuge tubes and spun down at 1200 rpm for 10 min. The supernatant was removed completely and cells were resuspended in 7.5 mL cell culture media. To 5 μL of the cell suspension was added 25 μL of media and 30 μL of Trypan Blue stain. The cells were counted using countess (automated cell counter, Thermo Fisher Scientific) twice and the viability and live cell count was recorded. The actual cell count was […] the live cell count. Based on the count, a cell suspension was prepared in colorless RPMI media for a final concentration of 7.5e6 cells/mL. Using Standard cassette multidrop combi, 20 μL of the 7.5e6 cells/mL cell stock was added to entire 384 well plate but for top half of column 1 (negative control) The multidrop combi was always primed to achieve a steady flow and washed after use with 20 mL de-ionized water followed by 20 mL alcohol. The cells were incubated in 5% CO2 incubator at 37° C.
Dosing was conducted using the following method. To dose assay plates and CTG plate was added 20 nL of compounds in DMSO using Echo (Beckman Coulter), and the plates were incubated at 37° C. for 18 h. The compound plates were spun at 1200 rpm for 1 min before dosing. The compound plate was sealed and properly stored during incubation.
After dosing, an HTRF assay was conducted using the following method. The treatment plates (IRAK4_HTRF) were centrifuged at 600 g for 10 min. Using CyBio Felix, Automated liquid handler (Analytikjena), 13 μL cell culture media was removed. To all columns, 7.5 μL lysis buffer was added, and an additional 7.5 μL of lysis buffer was added to column 1(top half, negative control). The plate was incubated on a shaker at room temperature for 2 h. The plate was spun down at 600 g for 5 min. Custom 20×IRAK4 Antibody obtained from CISBIO Anti-IRAK4-d2 (acceptor Ab) and Anti-IRAK4-K (donor Ab) were diluted to 1× antibody mix Using a multichannel repeater, 4 μL of 1× antibody mix was added to each wellThe plate was spun down at 600 g for 5 min and incubated in the dark at room temperature for 18 h The next day (after 18 hrs), HTRF assay plate was spun down at 600 g for 5 min and read at 665/615 nm using a Envision plate reader.

Row | LVL THP1 HTRF YMIN [%] | EC50 [nM] | Compound
1 | 0.9 | 3 | N#Cc1cnc2c(cnn2-c2cc(Nc3cnn(CC(F)(F)F)c3)c(-n3cc([C@H]4CC[C@H](CCN5CCN(c6ccc(C7CCC(=O)NC7=O)cc6)CC5)CC4)nn3)cn2)c1 (stereo partly shown)
2 | 1.9 | 2.6 | C[C@H](C#N)Nc1cc(-n2ncc3cc(C#N)c(N)nc32)ncc1-n1cc([C@H]2CC[C@H](CCN3CCN(c4ccc(C5(C)CCC(=O)NC5=O)nc4)[C@@H](C)C3)CC2)nn1 (stereo partly shown)
3 | 2.2 | 6.2 | C[C@H](C#N)Nc1cc(-n2ncc3cc(C#N)c(N)nc32)ncc1-n1cc([C@H]2CC[C@H](CCN3CCN(c4ccc(C5(C)CCC(=O)NC5=O)cn4)CC3)CC2)nn1 (stereo partly shown)
4 | 3.6 | 2 | C[C@H](C#N)Nc1cc(-n2ncc3cc(C#N)cnc32)ncc1-n1cc([C@H]2CC[C@H](CCN3CCC(c4ccc(C5(F)CCC(=O)NC5=O)cc4)CC3)CC2)nn1 (stereo partly shown)

Row | Compound | LVL THP1 HTRF YMIN [%] | EC50 [nM]
5 | C[C@H](C#N)Nc1cc(-n2ncc3cc(C#N)cnc32)ncc1-n1cc([C@H]2CC[C@H](CCN3CCN(c4ccc(N5CCC(=O)NC5=O)cc4)[C@H]4COC[C@H]43)CC2)nn1 | 28.37 | 119
